This is an account of results in the supplement of paper PMC4635364.

Structures can show the parent of a compound that is named as a salt. This is one part of the list. Repeats in this data set agree poorly, so a single value says little.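 Human fetal ventral-midbrain neural progenitor line ReNCell VM, differentiated without mitogens. Images stained for doublecortin (early neurons) or tyrosine hydroxylase (dopaminergic neurons) were scored by blinded raters against untreated wells (0 = no change). Repeats and both raters were averaged, and compounds averaging 2 or higher were picked as hits for retesting.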

Assay [1] deals with ReNCell VM. Nature of the assay: neuronal differentiation score (DCX+ cell fraction vs untreated, manual image score) (score (-3 to 3)); higher = more neuronal differentiation. Particulars: 2 uM, 2 weeks.
Assay [2] concerns ReNCell VM. Nature of the assay: dopaminergic neuron differentiation score (TH+ cell fraction vs untreated, manual image score) (score (0 to 3)); higher = more TH+ dopaminergic neuron differentiation. To be noted: 2 uM, 4 weeks, BDNF 10 ng/ml + GDNF 10 ng/ml.

Take `O=C(O)c1ccc2cc(-c3ccc(O)c(C45CC6CC(CC(C6)C4)C5)c3)ccc2c1`: in the assay on ReNCell VM [1] (library: Tocriscreen), the neuronal differentiation score was inactive: 0. In addition, in the assay with ReNCell VM [2] (library: Tocriscreen), the “dopaminergic neuron differentiation score” value was inactive: 0.

`Nc1ccc(S(N)(=O)=O)cc1`: the neuronal differentiation score with ReNCell VM [1] (library: Spectrum) is inactive: 0. For the same compound, the “dopaminergic neuron differentiation score” value in the assay with ReNCell VM [2] (library: Spectrum) is inactive: 0.

Regarding `CC1=C(C(=O)O)N2C(=O)[C@@H](NC(=O)[C@H](N)c3ccccc3)[C@H]2SC1` [Cephalexin monohydrate], the neuronal differentiation score in the assay with ReNCell VM [1] (library: Prestwick) is inactive: 0. For the same compound, in the assay with ReNCell VM [2] (library: Prestwick), the “dopaminergic neuron differentiation score” value was inactive: 0.

`Nc1ncnc2c1ncn2C1OC(COP(=O)(O)O)C(O)C1O` (centres undefined) [Adenosine 5'-monophosphate monohydrate]: the neuronal differentiation score with ReNCell VM [1] (library: Prestwick) is inactive: 0. Also, the “dopaminergic neuron differentiation score” value with ReNCell VM [2] (library: Prestwick) was inactive: 0.

For the compound `CCCCC[C@H](CC(=O)O)C(=O)O`, in the assay on ReNCell VM [1] (library: Spectrum), the neuronal differentiation score was inactive: 0. The “dopaminergic neuron differentiation score” value in the assay with ReNCell VM [2] (library: Spectrum) is inactive: 0.

`Cc1cccc(C)c1NC(=O)C[N+](C)(C)C`: the neuronal differentiation score in the assay on ReNCell VM [1] (library: Tocriscreen) is inactive: 0. The “dopaminergic neuron differentiation score” value with ReNCell VM [2] (library: Tocriscreen) is inactive: 0.

For `C[C@]12CC[C@@H]3c4ccc(O)cc4CC[C@H]3[C@@H]1C[C@@H](O)[C@@H]2O` [Estriol], in the assay on ReNCell VM [1] (library: Prestwick), the neuronal differentiation score was inactive: 0. The “dopaminergic neuron differentiation score” value with ReNCell VM [2] (library: Prestwick) was inactive: 0.

Regarding `O=C(O)CP(=O)(O)O` [Phosphonoacetic acid], in the assay on ReNCell VM [1] (library: LOPAC), the neuronal differentiation score is inactive: 0. For the same compound, in the assay with ReNCell VM [2] (library: LOPAC), the “dopaminergic neuron differentiation score” value was inactive: 0.

As to `C[C@]1(OC(=O)/C=C/c2ccccc2)C[C@@H](O)[C@]2(O)C=CO[C@@H](O[C@@H]3O[C@H](CO)[C@@H](O)[C@H](O)[C@H]3O)[C@@H]21`, the neuronal differentiation score in the assay on ReNCell VM [1] (library: Spectrum) is inactive: 0. Also, in the assay with ReNCell VM [2] (library: Spectrum), the “dopaminergic neuron differentiation score” value was inactive: 0.

With `CCC1(c2ccccc2)NC(=O)N(C)C1=O` (centres undefined) [Mephenytoin], the neuronal differentiation score with ReNCell VM [1] (library: Prestwick) was inactive: 0. In the assay on ReNCell VM [2] (library: Prestwick), the “dopaminergic neuron differentiation score” value is inactive: 0.

`COc1ccc(C(=O)c2ccccc2O)c(O)c1` [Dioxybenzone]: the neuronal differentiation score in the assay on ReNCell VM [1] (library: Prestwick) was inactive: 0. For the same compound, the “dopaminergic neuron differentiation score” value with ReNCell VM [2] (library: Prestwick) was inactive: 0.

Take `CC1CC(OC(=O)c2ccccc2O)CC(C)(C)C1` (centres undefined) [Homosalate]: in the assay on ReNCell VM [1] (library: Prestwick), the neuronal differentiation score was inactive: 1. Moreover, the “dopaminergic neuron differentiation score” value in the assay with ReNCell VM [2] (library: Prestwick) was inactive: 0.

`Cn1c(=O)[nH]c2ncn(C)c2c1=O` [1,7-Dimethylxanthine]: in the assay on ReNCell VM [1] (library: LOPAC), the neuronal differentiation score is inactive: 0. Moreover, in the assay on ReNCell VM [2] (library: LOPAC), the “dopaminergic neuron differentiation score” value was inactive: 0.

Consider `C[C@@H]1C[C@H]2[C@@H]3CCC4=CC(=O)C=C[C@]4(C)[C@@]3(F)[C@@H](O)C[C@]2(C)[C@@]1(O)C(=O)COP(=O)(O)O`, for which the neuronal differentiation score with ReNCell VM [1] (library: Spectrum) was inactive: 0. Further, the “dopaminergic neuron differentiation score” value in the assay on ReNCell VM [2] (library: Spectrum) is inactive: 0.

For the compound `CC1O[C@H](O[C@]2(O[C@H]3CC[C@@]4(C)C(=CC[C@H]5[C@@H]6C[C@H]7[C@H]([C@H](C)[C@H]8CC[C@H](C)CN87)[C@@]6(C)CC[C@@H]54)C3)C[C@@H](O[C@@H]3OC(CO)[C@@H](O)[C@@H](O)C3O)[C@@H](O)C(CO)O2)C(O)[C@@H](O)[C@H]1O` (stereo partly drawn) [Solanine alpha], the neuronal differentiation score in the assay with ReNCell VM [1] (library: Phytochemical) was inactive: 0. The “dopaminergic neuron differentiation score” value in the assay with ReNCell VM [2] (library: Phytochemical) is inactive: 0.

With `CCN(CC)CCNC(=O)c1cc(Br)c(N)cc1OC` [Bromopride], in the assay with ReNCell VM [1] (library: Prestwick), the neuronal differentiation score is inactive: 0. Moreover, the “dopaminergic neuron differentiation score” value with ReNCell VM [2] (library: Prestwick) is inactive: 0.

Take `CC(COc1ccccc1)NC(C)C(O)c1ccc(O)cc1` (centres undefined) [Isoxsuprine hydrochloride]: the neuronal differentiation score in the assay with ReNCell VM [1] (library: Prestwick) was inactive: 0. For the same compound, the “dopaminergic neuron differentiation score” value with ReNCell VM [2] (library: Prestwick) was inactive: 0.
